# Measured values as given in the supplement of paper PMC10338343.
# ± gives the standard deviation. This is a selection; strong and weak results do not stand in their true shares. Many of these values have a large error.
# System: MILI (PIWIL2) piRISC loaded with piRNA #1 (26 nt)
# Assay: pre-steady-state target cleavage rate (min^-1); MIWI and MILI are mouse PIWI proteins and EfPiwi is from a freshwater sponge; tags in brackets are library labels; higher = faster piRNA-guided slicing of the target
# Details: guide: piRNA #1 5'p-UGAGGUAGUAGGUUGUAUAGUAUCCA; auxiliary factor: 500 nM mouse GTSF1
# Method in brief: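 A burst-and-steady-state fit was used to obtain the pre-steady-state cleavage rate. The input data were sequencing reads of uncleaved targets, normalised to depth and to weakly complementary targets, from a […] transcribed, DNA-blocked target RNA library mixed with 1 nM active affinity-purified piRISC holding one synthetic guide, with or without 500 nM GTSF1 partner protein, in HEPES–potassium acetate buffer at 33 °C for 0–8 or 0–960 min. Three trials were pooled and k3 was capped at 0.0001 min^-1.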
# 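Note: 1 nM active piRISC with 0.1 nM target library at 33 °C single turnover.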
row,Sequence,pre-steady-state target cleavage rate
1,GGAGACCUAUGAUUACAACUCUACUACCUCA,0.000308 ± 0.011
2,GGAGACCUAUGAUAUCACCUACUACCUCA,0.00625 ± 0.0026
3,GGAGACCUAUGAAUACAACCUUCUACCUGA,0.000652 ± 0.0065
4,GGAGACCUAUGAUUACAACCUACACCUCA,0.000292 ± 0.016
5,GGAGACCUAUGAAUACAACCUUCUACCACA,0.00194 ± 0.0036
6,GGAGACCUAUGAUAUCAACCUACUACCUGA,0.00102 ± 0.0036
7,GGAGACCUAUGAUUACUACCUACUACCACA,0.00253 ± 0.0037
8,GGAGACGAUACUAUACGAACCUACUACCUCA,0.00117 ± 0.0071
9,GGAGACCUAUCUAUACAAUCCUACUACCUCA,0.00102 ± 0.0064
10,GGAGACCUAUGUAUUCAACCAACUACCUCA,0.00205 ± 0.0027
11,GGAGACCUAUGAUUACAACCAUCUACCUCA,0.00248 ± 0.0031
12,GGAGACCUAUGAUAUGUUGCUACGUACCUCA,0.000563 ± 0.011
13,GGAGAGGAUACUAUACAACCUACUAGCUGA,0.00126 ± 0.005
14,GGAGACCUAUGAUUACUUCCUACUACCUCA,0.00257 ± 0.0031
15,GGAGACCUAUGAUAUCGACCUACUACCUCA,0.000936 ± 0.0068
16,GGAGACCUAUGAUAUCAACCUAGAACCUCA,0.000265 ± 0.011

# Entries 5 through 7, reprinted for reference:
row,Sequence,pre-steady-state target cleavage rate
5,GGAGACCUAUGAAUACAACCUUCUACCACA,0.00194 ± 0.0036
6,GGAGACCUAUGAUAUCAACCUACUACCUGA,0.00102 ± 0.0036
7,GGAGACCUAUGAUUACUACCUACUACCACA,0.00253 ± 0.0037
